According to patent US9227995B2 (DRUG DISCOVERY LABORATORY AS, priority 2010, dated 2016):

Experiment: general procedure: solution-phase peptide synthesis; EDC hydrochloride/HOBt hydrate; EDC hydrochloride/HOAt
[1] = late stage modification step, trifluoroacetate
[2] = coupling step, trifluoroacetate

ε-Azido-L-Norvalyl α,α-Dimethylglycyl α,α-Dimethylglycyl O-Propynyl-L-Seryl α,α-Dimethylglycine Methyl Ester Trifluoroacetate 19
step yield [1]: 94%

Methyl 2-((5S,14S)-5-(tert-butoxycarbonylamino)-8,8,11,11-tetramethyl-6,9,12-trioxo-16-oxa-1,7,10,13,19,20-hexaazabicyclo[16.2.1]henicosa-18 (21),19-dienecarboxamido)-2-methylpropanoate 20
cyclisation yield (cyclisation step, trifluoroacetate): 83%

N-tert-butoxycarbonyl α,α-dimethylglycyl α,α-dimethylglycyl α,α-dimethylglycyl ε-azido-L-norvalyl α,α-dimethylglycyl α,α-dimethylglycyl O-propynyl-L-seryl α,α-dimethylglycyl methyl ester 21
step yield [2]: 43%

N^α-Tert-Butoxycarbonyl ε-Azido-L-Norvalyl α,α-Dimethylglycyl α,α-Dimethylglycyl O-Propynyl-L-Seryl α,α-Dimethylglycine Methyl Ester 18
step yield (coupling step, trifluoroacetate, run 1): 72% | step yield (coupling step, trifluoroacetate, run 2): 19%

N-Tert-Butoxycarbonyl α,α-Dimethylglycyl α,α-Dimethylglycyl O-Propynyl-L-Seryl α,α-Dimethylglycine Methyl Ester 16
step yield [2]: 77%

Methyl 2-methyl-2-((5S,14S)-8,8,11,11-tetramethyl-5-(2,2,6,6,9,9,12,12-octamethyl-4,7,10-trioxo-3-oxa-5,8,11-triazamidecanamido)-6,9,12-trioxo-16-oxa-1,7,10,13,19,20-hexaazabicyclo[16.2.1]henicosa-18 (21),19-dienecarboxamido)propanoate 23
step yield (coupling step, over two steps (deprotection and coupling) per paragraph 95, trifluoroacetate): 73%

N^α-Tert-Butoxycarbonyl-N^ε-Azido-L-Norvalyl L-Valyl L-Valyl O-Propynyl L-Seryl Glycine Methyl Ester 34
step yield [2]: 69%

α,α-Dimethylglycyl α,α-Dimethylglycyl O-Propynyl-L-Seryl α,α-Dimethylglycine Methyl Ester Trifluoroacetate 17
step yield [1]: 100%
